No constants are given. Whether binding was seen depends on the method and setting. Binding seen in cells or lysates may run through a third protein. These calls come from enrichment with a bait or labelling near it, and not all partners need be listed. No binding means not detected with the bait.
Key:
[1] = target: FLAG-HA-tagged FAM98C (human) (UniProt Q17RN3); test: affinity purification with mass spectrometry; anti-FLAG IP from HEK FITR cells expressing N-terminally FLAG-HA-tagged full-length FAM98A, FAM98B or FAM98C; eight washes in detergent-free lysis buffer; on-bead digestion, DIA-PASEF LC-MS; cells without construct as control; three independent experiments
[2] = target: N-terminally FLAG-HA-tagged, full-length FAM98A (human) (UniProt Q8NCA5); test: as above

Sequences of proteins named here, by UniProt entry; tags and fusion partners are left off.
UniProt Q17RN3: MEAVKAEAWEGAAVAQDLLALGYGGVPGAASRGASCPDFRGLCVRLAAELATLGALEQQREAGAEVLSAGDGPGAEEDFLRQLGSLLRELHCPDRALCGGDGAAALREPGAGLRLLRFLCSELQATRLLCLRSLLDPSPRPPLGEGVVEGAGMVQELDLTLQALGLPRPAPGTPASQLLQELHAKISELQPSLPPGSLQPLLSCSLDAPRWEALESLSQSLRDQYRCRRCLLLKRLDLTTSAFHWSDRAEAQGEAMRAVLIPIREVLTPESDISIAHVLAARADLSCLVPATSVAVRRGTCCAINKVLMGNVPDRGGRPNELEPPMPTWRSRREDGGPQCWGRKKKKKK

binding [1]: no binding
binding [2]: no binding
B1: Ashwin (endogenous) (protein, UniProt Q9BVC5-1 1-232)
chain: MAGDVGGRSCTDSELLLHPELLSQEFLLLTLEQKNIAVETDVRVNKDSLTDLYVQHAIPLPQRDLPKNRWGKMMEKKREQHEIKNETKRSSTVDGLRKRPLIVFDGSSTSTSIKVKKTENGDNDRLKPPPQASFTSNAFRKLSNSSSSVSPLILSSNLPVNNKTEHNNNDAKQNHDLTHRKSPSGPVKSPPLSPVGTTPVKLKRAAPKEEAEAMNNLKPPQAKRKIQHVTWP

Reference: paper PMC13586215
